Results on 1 molecule are retold here after paper PMC5868278.

These are yes or no findings as the source states them, for the method shown. In cells and extracts the contact can be indirect. Some entries that bind do so weakly or less than the wild type.

The experiment deals with vitamin D receptor (human) (UniProt P11473). As to the kind of experiment: co-IP; anti-GFP immunoprecipitation with GFP-Trap beads from HEK293T cells co-transfected with GFP- and HA-tagged constructs; Nonidet P-40 lysis buffer (10 mM Tris-Cl pH 7.5, 150 mM NaCl, 0.5 mM EDTA, 0.5% Nonidet P-40), 1 h at 4 °C; Western blot.

B1: vitamin D receptor (protein, UniProt P11473 1-427)
chain: MEAMAASTSLPDPGDFDRNVPRICGVCGDRATGFHFNAMTCEGCKGFFRRSMKRKALFTCPFNGDCRITKDNRRHCQACRLKRCVDIGMMKEFILTDEEVQRKREMILKRKEEEALKDSLRPKLSEEQQRIIAILLDAHHKTYDPTYSDFCQFRPPVRVNDGGGSHPSRPNSRHTPSFSGDSSSSCSDHCITSSDMMDSSSFSNLDLSEEDSDDPSVTLELSQLSMLPHLADLVSYSIQKVIGFAKMIPGFRDLTSEDQIVLLKSSAIEVIMLRSNESFTMDDMSWTCGNQDYKYRVSDVTKAGHSLELIEPLIKFQVGLKKLNLHEEEHVLLMAICIVSPDRPGVQDAALIEAIQDRLSNTLQTYIRCRHPPPGSHLLYAKMIQKLADLRSLNEEHSKQYRCLSFQPECSMKLTPLVLEVFGNEIS
Consider B1, for which the binding entry is reported as “binds”.
